This is an account of results in patent US20220288010A1, “METHODS FOR REDUCING REWARDING EFFECTS OF MORPHINE WITHOUT AFFECTING ITS ANALGESIC EFFECTS” (The Board of Trustees of the Leland Stanford Junior …, priority 2019, published 2022).

The data set has as its system mice. The data set can be described thus: morphine conditioned place preference (CPP) paradigm to assess morphine reward. The class given is in vivo. The text has this: The ability of a MAGL inhibitor to attenuate the rewarding effect of an opioid can also be assessed in animal models. For example, a morphine conditioning place preference (CPP) paradigm can be used as a preclinical model to measure reward, in which mice are conditioned to associate a particular chamber with the rewarding effects of morphine (see, e.g., Example 1). Reward, e.g., as measured by a preference for the morphine chamber, can be assessed at different phases of morphine conditioning, for example to assess if a MAGL inhibitor decreases or inhibits the establishment of the rewarding effect or of its maintenance or expression.
Endocannabinoid signaling is primarily regulated by MAGL and FAAH, the two enzymes responsible for catabolizing the endogenous cannabinoids, 2-AG and anandamide. Although some studies have shown that inhibition of these enzymes reduces certain aspects of morphine withdrawal, no studies exist that have examined their role in morphine reward. We utilized the morphine conditioned place preference (CPP) paradigm, to assess morphine reward, in which mice are conditioned to associate a particular chamber with the rewarding effects of morphine (FIG. 1A). […]

For `O=C(Oc1ccc([N+](=O)[O-])cc1)N1CCC(C(O)(c2ccc3c(c2)OCO3)c2ccc3c(c2)OCO3)CC1` [JZL-184, (4-nitrophenyl) 4-[bis(1,3-benzodioxol-5-yl)-hydroxymethyl]piperidine-1-carboxylate], the “Day 1 vs Day 6, Bonferroni post hoc test, acquisition of morphine CPP (FIG. 1C)” value (JZL-184 prior to each morphine conditioning session, n=8) is recorded as “no significant”. As to `Cc1ncccc1-c1cc(F)cc(N2C[C@H](N3CCN(c4ncccn4)CC3)CC2=O)c1` [(R)-3t, (4R)-1-[3-fluoro-5-(2-methylpyridin-3-yl)phenyl]-4-[4-(pyrimidin-2-yl)piperazin-1-yl]pyrrolidin-2-one], the “Day 1 vs Day 6, Bonferroni post hoc test, acquisition of morphine CPP (FIG. 3B)” value ((R)-3t before each conditioning session, n=11) is recorded as “not significant”.
